Values from PubChem BioAssay AID1259308 (NCATS, 2017).

- Aim: 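Knock-downs that increase output of a recombinant reporter protein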 (primary screen)
- System: human HEK293 embryonic kidney cells stably expressing firefly luciferase (HEK-CMV-Luc2-Hygro)
- Knock-down reagent: single siRNA against human genes, 0.8 pmol siRNA per well
- Time to read-out: 72 h
- Measured: 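Luciferase light (ONE-Glo) measured on one replicate plate set and viability (CellTiter-Glo) on the other, scaled to a negative control siRNA, with robust z-scores and luciferase per cell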
- Direction: total luciferase, z-score and total luciferase, % of control: higher = more reporter protein produced; luciferase per cell, z-score: higher = more reporter output per viable cell; viable cells, % of control: higher = more viable cells
- Call rule: 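Active when the median/MAD z-score for overall luciferase is greater than 3; a gene was taken forward for validation with new siRNAs if at least two of its three siRNAs passed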
- Meaning of the calls: active = raised luciferase; inactive = no rise
Here is one part, drawn at random, of about 59,000 reagents. In the full data, about 1,510 (2.6%) got an active call. 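Calls use total luciferase alone and ignore viability, so some active siRNAs may act by altering cell number.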 Entries without a mark were called inactive. The numbers tell different reagents against one gene apart.

Gene	reagent no.	total luciferase, z-score	total luciferase, % of control	luciferase per cell, z-score	viable cells, % of control
CD8A (CD8 subunit alpha)	1	-0.231	77.3	-0.0137	86.7
CD8A (CD8 subunit alpha)	2	-0.207	77.8	-0.87	109
CD8A (CD8 subunit alpha)	3	0.153	84.9	0.497	83.3
DIO2 (iodothyronine deiodinase 2)	1	0.475	91.3	0.304	94.2
DIO2 (iodothyronine deiodinase 2)	2	-0.845	65.1	-0.866	91.3
DIO2 (iodothyronine deiodinase 2)	3	1.56	113	1.98	74.9
GUSBP1 (GUSB pseudogene 1)	1	0.865	99.1	0.274	103
GUSBP1 (GUSB pseudogene 1)	2	0.858	98.9	1.49	74.7
GUSBP1 (GUSB pseudogene 1)	3	0.359	89	-0.0358	100
LPAR1 (lysophosphatidic acid receptor 1)	1	0.932	100	1.47	76.3
LPAR1 (lysophosphatidic acid receptor 1)	2	-0.488	72.2	-0.961	104
LPAR1 (lysophosphatidic acid receptor 1)	3	2.62	134	1.1	112

An excerpt from above, limited to “viable cells, % of control”.
DIO2 (iodothyronine deiodinase 2) #2 = 91.3
DIO2 (iodothyronine deiodinase 2) #3 = 74.9
GUSBP1 (GUSB pseudogene 1) #1 = 103

The list goes on:
Gene	reagent no.	total luciferase, z-score	total luciferase, % of control	luciferase per cell, z-score	viable cells, % of control
LYN (LYN proto-oncogene, Src family tyrosine kinase)	1	-0.582	70.3	-0.527	90.3
LYN (LYN proto-oncogene, Src family tyrosine kinase)	2	0.157	85	0.439	84.6
LYN (LYN proto-oncogene, Src family tyrosine kinase)	3	-1.27	56.6	-1.72	99.5
KCTD12 (potassium channel tetramerization domain containing 12)	1	4.13 (active)	164	2.69	90.2
KCTD12 (potassium channel tetramerization domain containing 12)	2	-0.153	78.8	-0.241	93.9
KCTD12 (potassium channel tetramerization domain containing 12)	3	1.48	111	2.11	71.4
ASMT (acetylserotonin O-methyltransferase)	1	1.11	104	1.05	87.9
ASMT (acetylserotonin O-methyltransferase)	2	0.131	84.5	0.643	79.7
ASMT (acetylserotonin O-methyltransferase)	3	1.87	119	1.45	90.8
TSEN34 (tRNA splicing endonuclease subunit 34)	1	-0.159	78.7	-0.481	99.9
TSEN34 (tRNA splicing endonuclease subunit 34)	2	-1.03	61.4	-1.07	90.9
TSEN34 (tRNA splicing endonuclease subunit 34)	3	0.23	86.5	-0.216	102
